Data taken from publication PMC12040169 (PLOS Biology, 2025).
The other results are listed elsewhere or left out.

test system: T1, CTL2-GFP (C. trachomatis L2/434/Bu, GFP-expressing); parameters: species or system HeLa; Intracellular C. trachomatis growth in HeLa cells, bulk GFP fluorescence relative to DMSO; details: bulk GFP, single well; 28.5 h, 10 µM; inhibitor
T1 construct: L2/434/Bu, GFP-expressing

First: CCn1nc(C)c(C(C)NC(=O)CC(C)n2nc(C)cc2C)c1C (stereo not drawn) [CBK281533]
Second: Cc1cc(C)c2cc(C)c3nn(CC(=O)N(C)C)c(=O)n3c2c1 [CBK283821]
The “% of control remaining” value of the first is higher: 151.471% for the first, 127.045% for the second.

First: FC(F)(F)c1ccnc(SCCc2cnccn2)n1 [CBK105300]
Second: Cc1cc(C)n(-c2ccnc(NCc3cccnc3)n2)n1 [CBK288614]
The “% of control remaining” value of the first is lower: 90.5731% for the first, 92.8389% for the second.

Going from `CCOC(=O)Cn1[nH]c(COC(C)(C)C)c(Cc2c(Cl)cccc2Cl)c1=O` [CBK103551] to `CCOC(=O)c1cnc(C(C)(C)C)nc1O` [CBK018470], the “% of control remaining” value rises from 100.031% to 120.663%.

Compared with `Cc1ccc(C(=O)O)cc1NC(=S)NC(=O)c1ccc(-c2ccccc2)cc1` [CBK264997], `Cc1ccc(S(=O)(=O)NC(C(=O)O)c2ccccc2)cc1` (stereo not drawn) [CBK286985] is higher in “% of control remaining” value: 118.023% for the first, 151.886% for the second.

Compared with `O=C(CC1CCCCC1)N1CCCC1c1n[nH]cc1-c1ccncc1` (stereo not drawn) [CBK283429], `Cc1oc(C2CC2)cc1C(=O)N1CCC(c2ccncc2)CC1` [CBK283514] is lower in “% of control remaining” value: 150.992% for the first, 124.282% for the second.

Going from `O=C1OC(c2ccco2)=N/C1=C/c1ccccc1OC(=O)c1ccco1` [CBK263980] to `O=C(COc1ccccc1[N+](=O)[O-])Nc1cc(-c2nc3cc(Cl)ccc3o2)ccc1Cl` [CBK268639], the “% of control remaining” value falls from 100% to 82.8562%.

Compared with `CCOCCN1C[C@@H](C(F)(F)F)[C@H](C(=O)O)C1` [CBK287033], `CCOc1ccc(S(=O)(=O)N2CCC(C(=O)NCCO)CC2)cc1` [CBK269817] is higher in “% of control remaining” value: 124.89% for the first, 141.135% for the second.

Going from `CC(C)Cn1ncc2cc(C(=O)Nc3cccnc3N(C)C)cnc21` [CBK304891] to `O=C(NCCO)c1cccc(-c2cnc3[nH]c(=O)n(Cc4ccccn4)c3n2)c1` [CBK065034], the “% of control remaining” value falls from 101.133% to 94.798%.

Compared with `COc1ccc(Nc2ccc(-c3cnc(OC)nc3OC)cn2)c(C)c1` [CBK036827], `COc1ccc(C)cc1Nc1nc(N)nc(-c2oc3ccccc3c2C)n1` [CBK269026] is lower in “% of control remaining” value: 111.809% for the first, 97.7396% for the second.

Going from `CCN(C(=O)c1cc(C)nc2ccccc12)C1CCN(C)CC1` [CBK281920] to `CCn1cc(CN2CCC(Oc3cc(C)ccc3F)(C(=O)O)CC2)cn1` [CBK306644], the “% of control remaining” value falls from 151.374% to 91.2749%.

Compared with `COCCNC(=O)c1ccc(-c2cc(C(C)C)ccc2OC)nc1NCC1CC1` [CBK106256], `CC(C)c1ccc(-c2cncc(NCCCO)n2)cc1` [CBK037937] is higher in “% of control remaining” value: 89.1035% for the first, 140.507% for the second.

First: CCc1nc2c(OCC3CCCCO3)cccn2c1N(C)C(=O)c1ccc2c(c1)OCO2 (stereo not drawn) [CBK147860]
Second: CN(CC(=O)N1CCN(Cc2ccc3c(c2)OCO3)CC1)S(=O)(=O)c1ccccc1 [CBK265791]
The “% of control remaining” value of the first is higher: 179.149% for the first, 103.009% for the second.

Going from `Cc1cccn2cc(CSc3nnc4[nH]c5ccccc5n34)nc12` [CBK296996] to `Cc1nnc(SCC(=O)n2c3c(c4ccccc42)CCCC3)n1C` [CBK268351], the “% of control remaining” value rises from 114.69% to 152.478%.

Compared with `CC(C)(C)OC(=O)N[C@@H]1C(=O)OC(C(O)CO)[C@@H]1O` (stereo partly drawn) [CBK008178], `Cc1cc(OCC(=O)O)c(C)c2c1CC[C@@H]([C@H](C)C(=O)N1CCC(O)CC1)C2` [CBK289433] is lower in “% of control remaining” value: 128.138% for the first, 124.76% for the second.

First: Cn1ncc2c1CCCN(C(=O)c1cccc(C(F)(F)F)c1)C2 [CBK282252]
Second: CCOc1ccc(C(=O)N2CCN(S(=O)(=O)c3ccc(C)cc3C)CC2)cn1 [CBK298313]
The “% of control remaining” value of the first is lower: 135.019% for the first, 135.641% for the second.

Going from `CN(C)S(=O)(=O)Nc1ccc2c(ccn2Cc2ccccc2)c1` [CBK155765] to `COc1ccccc1-c1cccc(NCC(c2cccnc2)N(C)C)n1` (stereo not drawn) [CBK037770], the “% of control remaining” value rises from 88.2806% to 213.462%.

Going from `Cc1ccc(CN(CCCn2ccnc2)Cc2[nH]cnc2C)s1` [CBK283138] to `Cc1ccc(CN2C[C@@H]3CC[C@@](O)(c4ncccc4C)[C@@H]3C2)o1` [CBK285361], the “% of control remaining” value rises from 120.629% to 141.924%.

Going from `NC(=O)c1ccccc1NC(=O)CN(c1cccc(Br)c1)S(=O)(=O)c1ccccc1` [CBK265263] to `O=C(Nc1cccc([N+](=O)[O-])c1)c1ccc2nc(-c3ccccn3)c(-c3ccccn3)nc2c1` [CBK265137], the “% of control remaining” value rises from 112.606% to 145.805%.

First: CC(C)(C)C(=O)Nc1cccc(OC(F)(F)C(F)Cl)c1 (stereo not drawn) [CBK018091]
Second: Cc1nc(NS(=O)(=O)c2c(C)noc2C)sc1C(=O)Nc1ccc(F)cc1 [CBK050551]
The “% of control remaining” value of the first is higher: 135.171% for the first, 99.3272% for the second.

First: COc1cc(OC)c(OC)cc1CN1CCN(Cc2ccco2)CC1 [CBK074509G]
Second: Fc1ccccc1CN1CCN(c2nccnc2OCCN2CCOCC2)CC1 [CBK082886T]
The “% of control remaining” value of the first is higher: 135.068% for the first, 96.8934% for the second.

Compared with `N#Cc1c(NC(=O)C(=O)NCc2ccccn2)sc2c1CCCC2` [CBK269360], `CN1CCCC(NC(=O)c2cc(-c3cccs3)no2)C1` (stereo not drawn) [CBK282564] is lower in “% of control remaining” value: 129.78% for the first, 115.082% for the second.

First: CCNC(=O)CN(CC)S(=O)(=O)c1cccc(C#N)c1 [CBK306481]
Second: CN(C)CCCOC(=O)c1cccnc1Cl [CBK027436]
The “% of control remaining” value of the first is higher: 124.181% for the first, 113.68% for the second.

Compared with `Cc1ccc(NC2C=CS(=O)(=O)C2)cc1` (stereo not drawn) [CBK057487], `Cc1ccc(CSCC(=O)NCCN2CCOCC2)cc1` [CBK269327] is higher in “% of control remaining” value: 84.9742% for the first, 128.871% for the second.

Compared with `O=C(NCc1cccs1)C1(Cc2cccc(-c3ccc(F)c(F)c3)c2)CCOCC1` [CBK285569], `CN(C)c1ccc(-n2ncc(-c3ccccc3C(F)(F)F)n2)cc1` [CBK112716] is higher in “% of control remaining” value: 98.8365% for the first, 143.064% for the second.

Going from `Cc1nc2ncnc(N3CCc4ccccc43)c2[nH]1` [CBK291228] to `C=Cn1cc(CN2C3CCC2CC(O)(c2ccc(F)cc2)C3)c(C)n1` (stereo not drawn) [CBK282742], the “% of control remaining” value falls from 146.526% to 103.672%.

`CC(NC(=O)CCc1ccncc1)C1CC2CCC1C2` (stereo not drawn) [CBK282090] was tested, and the “% of control remaining” value was 113.845%.
